Article PMC9677231 (ACS infectious diseases, 2021)

Tested on: E. coli expressing OXA-48 (E. coliOXA-48)
Experiment: Ampicillin MIC synergy assay
Type: cell-based
Conditions: Cmpd 0 μg/ml (inhibitor-less control of the respective column)

CC1(C)S[C@@H]2[C@H](NC(=O)[C@H](N)c3ccccc3)C(=O)N2[C@H]1C(=O)O [Ampicillin, ampicillin]
Ampicillin MIC for E. coliOXA-48: 1024 µg/mL
